Measurements taken from paper PMC11226087.
No constants are given. Whether binding was seen depends on the method and setting. In cells and extracts the contact can be indirect. Some results given as binding are weak or reduced against the parent protein; the word gives no strength.

Chains of the proteins cited; added tags and fusions are not shown.
UniProt P08207: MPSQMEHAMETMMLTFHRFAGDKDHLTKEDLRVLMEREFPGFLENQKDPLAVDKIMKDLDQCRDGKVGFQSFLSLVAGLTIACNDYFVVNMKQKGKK
UniProt P07356: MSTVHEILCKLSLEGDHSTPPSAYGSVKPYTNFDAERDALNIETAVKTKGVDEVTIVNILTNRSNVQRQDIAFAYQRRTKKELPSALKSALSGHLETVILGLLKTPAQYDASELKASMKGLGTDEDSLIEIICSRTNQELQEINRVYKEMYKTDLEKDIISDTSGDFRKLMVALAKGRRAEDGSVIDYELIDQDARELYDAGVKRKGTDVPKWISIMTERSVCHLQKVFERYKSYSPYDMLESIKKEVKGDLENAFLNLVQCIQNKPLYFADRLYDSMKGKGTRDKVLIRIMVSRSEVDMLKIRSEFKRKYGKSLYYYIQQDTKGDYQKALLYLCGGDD

Biological target: S100A10 (mouse (endogenous in lung tissue of AC70 hACE2 Tg mice)) (UniProt P08207)
Assay: co-IP; anti-S100A10 antibody [EPR3317] immobilised on AminoLink Plus Coupling Resin; pre-cleared lung tissue lysates of Mock and SARS-CoV-2-infected (4 d.p.i.) AC70 hACE2 Tg mice, incubated overnight at 4°C; blot with anti-ANXA2 antibodies

binding: binds
Substance: Annexin A2 (from UniProt P07356 1-339)
